For the data set, the system named is T. cruzi CA-I/72. In words: Secondary screening (dose-response assay). The settings on record: dose-response curve. The class given is cell-based, Trypanosoma cruzi. The method, then:
T. cruzi CA-I/72 trypomastigotes were obtained from C2C12 infected-culture supernatants after 4–7 days of infection. Cultures were maintained at 37°C with 5% CO2. […] Compounds were added at 10 mM in 50 nl per well using a Biomek FX (Beckman Coulter) for a final 10 μM concentration in 50 μl total volume, and 2,500 parasites were added in 10 μl per well. The plate was incubated for 72 hours at 37°C with 5% CO2. After the incubation, the plate was fixed with the addition of 50 μl of 8% paraformaldehyde solution, followed by two successive washing steps using PBS. Finally, a staining solution containing 0.5 μg/ml of 4',6-diamidino-2-phenylindole (DAPI) was added to each well of the plate and incubated for at least 4 hours prior to reading. Images were acquired by an IN Cell Analyzer 2000 (GE Healthcare) and analyzed by IN Cell Analyzer Developer 1.6 software. […] Numbers of host cells and intracellular amastigotes were determined based on host cell and parasite nucleus quantification, providing a measure of growth inhibition during the first 72 h of post-infection treatment compared to untreated controls. […] The host cell viability was assessed based on the total number of cells divided by the average number of cells from untreated controls (0.1% DMSO), being <0.5 considered a cytotoxic compound. This assay was performed in duplicate. […]

Counter-ions that a name gives are not always drawn.

For `COc1ccc(CCN(C)CCCC(C#N)(c2ccc(OC)c(OC)c2)C(C)C)cc1OC` (racemic) [SC-0005695, (±)-Verapamil hydrochloride], the Hill slope was determined as 1.67.
Turning to `CCCCCCCCCCCCCCCC[n+]1ccccc1` [SC-0011466, cetylpyridinium chloride], the Hill slope was -1.22.

The term Hill slope denotes a measure of the steepness of the concentration-response curve.

The record behind these values is publication PMC4482694, “Machine Learning Models and Pathway Genome Data Base for Trypanosoma cruzi Drug Discovery” (PLoS Neglected Tropical Diseases, 2015).
